Source: article PMC12630025, “Characterization and inhibitor sensitivity of ARAF, BRAF, and CRAF kinases [drawing 1]” (The Journal of Biological Chemistry, 2025)
Results are given in words; binding and its absence hold for the method and conditions named. Sequences can lack the tags named with a protein.

Target: his6-ARAF^282-579 (UniProt P10398)
Test: SEC; RAF construct and MEK1 coexpressed in SF9 cells; Ni-NTA (for some constructs then MESNA cleavage of the intein and chitin beads, or TEV cleavage and a second Ni-NTA), then gel filtration on Superdex 200; fractions analysed by SDS-PAGE; 50 mM Tris, 150 mM NaCl, 10 mM MgCl2, 1 mM TCEP, 1 μM AMP-PNP

B1: his6-ARAF^282-579 (domain or fragment, UniProt P10398 282-579)
chain: KSLADDKKKVKNLGYRDSGYYWEVPPSEVQLLKRIGTGSFGTVFRGRWHGDVAVKVLKVSQPTAEQAQAFKNEMQVLRKTRHVNILLFMGFMTRPGFAIITQWCEGSSLYHHLHVADTRFDMVQLIDVARQTAQGMDYLHAKNIIHRDLKSNNIFLHEGLTVKIGDFGLATVKTRWSGAQPLEQPSGSVLWMAAEVIRMQDPNPYSFQSDVYAYGVVLYELMTGSLPYSHIGCRDQIIFMVGRGYLSPDLSKISSNCPKAMRRLLSDCLKFQREERPLFPQILATIELLQRSLPKIER
In the case of B1, the binding is reported as “no binding”.
